The other results are listed elsewhere or left out.

Sequences of proteins named here, by UniProt entry; tags and fusion partners are left off. A change or cut given only in a name is not applied to a line headed by its entry.
UniProt Q9P2D0: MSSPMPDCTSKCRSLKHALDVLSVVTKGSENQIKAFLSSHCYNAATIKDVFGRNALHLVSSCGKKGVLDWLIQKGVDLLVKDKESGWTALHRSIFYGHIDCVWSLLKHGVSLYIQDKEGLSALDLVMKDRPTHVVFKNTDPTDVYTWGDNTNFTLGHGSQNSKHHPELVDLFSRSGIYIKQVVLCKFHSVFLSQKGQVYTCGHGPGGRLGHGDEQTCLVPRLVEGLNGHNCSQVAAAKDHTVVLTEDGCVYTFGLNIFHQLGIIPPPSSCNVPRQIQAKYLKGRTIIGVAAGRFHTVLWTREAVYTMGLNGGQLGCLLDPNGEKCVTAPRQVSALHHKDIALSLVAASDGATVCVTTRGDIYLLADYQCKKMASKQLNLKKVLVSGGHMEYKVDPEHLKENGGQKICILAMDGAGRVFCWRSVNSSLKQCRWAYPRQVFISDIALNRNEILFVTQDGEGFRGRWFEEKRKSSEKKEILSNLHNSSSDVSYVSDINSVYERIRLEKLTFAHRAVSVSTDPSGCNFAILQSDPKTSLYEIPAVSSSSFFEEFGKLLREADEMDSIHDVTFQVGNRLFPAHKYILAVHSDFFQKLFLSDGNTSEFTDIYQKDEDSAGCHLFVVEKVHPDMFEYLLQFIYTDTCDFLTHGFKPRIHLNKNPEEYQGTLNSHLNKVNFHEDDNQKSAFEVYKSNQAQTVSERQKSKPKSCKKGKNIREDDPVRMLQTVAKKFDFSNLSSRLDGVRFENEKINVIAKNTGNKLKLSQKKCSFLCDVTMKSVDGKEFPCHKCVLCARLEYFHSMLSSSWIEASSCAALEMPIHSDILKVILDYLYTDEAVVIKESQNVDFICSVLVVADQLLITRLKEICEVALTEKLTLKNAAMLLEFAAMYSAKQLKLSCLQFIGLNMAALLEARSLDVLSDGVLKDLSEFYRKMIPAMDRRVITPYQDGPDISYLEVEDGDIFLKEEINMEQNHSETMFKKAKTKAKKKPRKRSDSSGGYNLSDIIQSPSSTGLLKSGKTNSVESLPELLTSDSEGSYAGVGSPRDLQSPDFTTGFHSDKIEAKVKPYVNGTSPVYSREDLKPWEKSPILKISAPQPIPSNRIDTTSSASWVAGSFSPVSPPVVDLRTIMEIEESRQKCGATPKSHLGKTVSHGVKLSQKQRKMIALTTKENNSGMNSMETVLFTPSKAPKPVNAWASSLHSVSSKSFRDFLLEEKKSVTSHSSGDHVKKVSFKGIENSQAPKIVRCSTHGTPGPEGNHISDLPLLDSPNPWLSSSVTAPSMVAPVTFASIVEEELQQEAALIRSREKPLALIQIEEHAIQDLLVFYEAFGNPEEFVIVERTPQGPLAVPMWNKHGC
UniProt Q9P0W2: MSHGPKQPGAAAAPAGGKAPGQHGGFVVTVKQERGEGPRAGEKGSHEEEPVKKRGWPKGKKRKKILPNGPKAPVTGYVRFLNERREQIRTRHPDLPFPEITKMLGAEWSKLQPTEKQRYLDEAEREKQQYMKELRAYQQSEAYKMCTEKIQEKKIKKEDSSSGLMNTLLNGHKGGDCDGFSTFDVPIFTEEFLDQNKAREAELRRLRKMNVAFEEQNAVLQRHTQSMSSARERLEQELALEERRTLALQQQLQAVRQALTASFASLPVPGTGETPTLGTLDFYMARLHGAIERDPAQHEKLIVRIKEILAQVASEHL
UniProt O75506: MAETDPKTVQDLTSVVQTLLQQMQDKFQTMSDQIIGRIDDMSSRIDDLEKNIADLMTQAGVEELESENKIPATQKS
UniProt Q9Y241: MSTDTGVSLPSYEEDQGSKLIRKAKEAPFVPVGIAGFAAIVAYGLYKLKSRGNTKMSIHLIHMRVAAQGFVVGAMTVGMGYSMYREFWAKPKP
UniProt Q9Y2F5: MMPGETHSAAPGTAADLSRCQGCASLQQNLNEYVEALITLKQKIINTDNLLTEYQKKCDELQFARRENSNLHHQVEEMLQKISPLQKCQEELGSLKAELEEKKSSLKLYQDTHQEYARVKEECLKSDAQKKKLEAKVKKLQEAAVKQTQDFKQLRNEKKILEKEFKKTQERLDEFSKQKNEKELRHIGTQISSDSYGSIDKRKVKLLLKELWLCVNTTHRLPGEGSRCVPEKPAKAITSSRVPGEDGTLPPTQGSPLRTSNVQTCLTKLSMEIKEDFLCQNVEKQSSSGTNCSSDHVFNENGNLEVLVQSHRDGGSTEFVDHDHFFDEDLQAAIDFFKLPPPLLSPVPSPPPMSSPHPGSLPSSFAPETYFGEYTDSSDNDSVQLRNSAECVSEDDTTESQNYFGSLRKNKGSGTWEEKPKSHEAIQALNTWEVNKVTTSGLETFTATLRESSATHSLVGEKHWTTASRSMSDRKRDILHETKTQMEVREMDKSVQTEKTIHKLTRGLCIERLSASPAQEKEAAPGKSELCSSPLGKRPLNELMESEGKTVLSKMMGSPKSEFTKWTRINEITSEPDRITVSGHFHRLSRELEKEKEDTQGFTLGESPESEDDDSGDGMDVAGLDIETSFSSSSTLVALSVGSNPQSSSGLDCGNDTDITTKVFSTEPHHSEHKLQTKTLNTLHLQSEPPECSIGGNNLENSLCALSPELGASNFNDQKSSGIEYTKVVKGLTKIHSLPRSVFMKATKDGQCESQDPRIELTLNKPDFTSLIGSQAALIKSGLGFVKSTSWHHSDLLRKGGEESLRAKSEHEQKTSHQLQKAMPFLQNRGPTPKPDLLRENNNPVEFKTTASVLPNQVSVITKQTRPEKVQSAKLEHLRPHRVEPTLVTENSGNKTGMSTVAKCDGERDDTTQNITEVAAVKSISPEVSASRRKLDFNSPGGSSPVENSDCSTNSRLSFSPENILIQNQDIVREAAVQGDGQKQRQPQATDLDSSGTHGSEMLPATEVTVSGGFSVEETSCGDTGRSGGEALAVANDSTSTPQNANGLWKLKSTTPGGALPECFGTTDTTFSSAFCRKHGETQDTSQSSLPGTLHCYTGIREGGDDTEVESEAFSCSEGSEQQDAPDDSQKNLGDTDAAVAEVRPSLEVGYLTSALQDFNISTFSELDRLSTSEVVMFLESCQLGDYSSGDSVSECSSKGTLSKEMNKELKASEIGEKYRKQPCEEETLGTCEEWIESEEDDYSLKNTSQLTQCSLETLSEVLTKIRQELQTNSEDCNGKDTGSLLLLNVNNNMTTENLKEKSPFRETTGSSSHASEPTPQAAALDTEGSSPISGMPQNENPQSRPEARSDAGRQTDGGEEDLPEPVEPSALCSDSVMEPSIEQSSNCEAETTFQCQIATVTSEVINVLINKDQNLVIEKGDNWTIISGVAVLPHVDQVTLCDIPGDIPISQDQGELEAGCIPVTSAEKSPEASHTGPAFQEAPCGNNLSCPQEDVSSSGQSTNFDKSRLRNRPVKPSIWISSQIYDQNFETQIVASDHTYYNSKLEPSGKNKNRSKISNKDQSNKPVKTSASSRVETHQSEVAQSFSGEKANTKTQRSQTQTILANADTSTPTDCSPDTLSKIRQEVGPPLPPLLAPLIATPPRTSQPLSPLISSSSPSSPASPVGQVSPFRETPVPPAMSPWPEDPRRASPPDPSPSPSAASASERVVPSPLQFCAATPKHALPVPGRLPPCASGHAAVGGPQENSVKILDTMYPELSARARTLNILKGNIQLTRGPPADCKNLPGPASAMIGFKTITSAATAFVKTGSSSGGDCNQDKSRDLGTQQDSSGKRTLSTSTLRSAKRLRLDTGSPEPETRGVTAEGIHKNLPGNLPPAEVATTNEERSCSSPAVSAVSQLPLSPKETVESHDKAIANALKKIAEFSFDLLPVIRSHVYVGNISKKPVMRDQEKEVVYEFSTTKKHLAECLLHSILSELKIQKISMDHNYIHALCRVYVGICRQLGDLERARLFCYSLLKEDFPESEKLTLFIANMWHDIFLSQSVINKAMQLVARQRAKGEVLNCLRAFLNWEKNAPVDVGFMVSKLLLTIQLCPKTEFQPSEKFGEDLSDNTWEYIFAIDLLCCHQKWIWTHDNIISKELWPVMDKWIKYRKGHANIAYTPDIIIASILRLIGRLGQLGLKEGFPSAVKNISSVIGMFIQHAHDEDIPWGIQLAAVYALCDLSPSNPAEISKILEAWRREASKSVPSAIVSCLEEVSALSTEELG
UniProt O43390: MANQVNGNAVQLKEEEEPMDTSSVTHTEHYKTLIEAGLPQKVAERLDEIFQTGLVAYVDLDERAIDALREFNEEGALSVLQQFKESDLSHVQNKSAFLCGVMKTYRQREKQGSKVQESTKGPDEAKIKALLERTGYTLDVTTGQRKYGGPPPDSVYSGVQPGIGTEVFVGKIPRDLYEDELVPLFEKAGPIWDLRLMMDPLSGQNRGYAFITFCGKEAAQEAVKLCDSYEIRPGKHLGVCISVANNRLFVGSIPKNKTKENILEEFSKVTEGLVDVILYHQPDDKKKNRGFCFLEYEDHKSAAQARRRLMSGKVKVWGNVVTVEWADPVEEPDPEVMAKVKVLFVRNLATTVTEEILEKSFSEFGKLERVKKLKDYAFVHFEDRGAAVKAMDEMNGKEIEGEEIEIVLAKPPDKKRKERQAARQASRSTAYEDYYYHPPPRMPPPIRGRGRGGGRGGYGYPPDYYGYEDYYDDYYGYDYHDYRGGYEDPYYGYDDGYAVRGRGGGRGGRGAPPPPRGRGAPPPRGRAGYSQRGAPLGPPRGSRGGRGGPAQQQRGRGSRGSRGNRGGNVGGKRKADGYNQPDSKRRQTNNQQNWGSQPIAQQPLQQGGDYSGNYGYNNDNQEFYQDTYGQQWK
UniProt Q8TCT9: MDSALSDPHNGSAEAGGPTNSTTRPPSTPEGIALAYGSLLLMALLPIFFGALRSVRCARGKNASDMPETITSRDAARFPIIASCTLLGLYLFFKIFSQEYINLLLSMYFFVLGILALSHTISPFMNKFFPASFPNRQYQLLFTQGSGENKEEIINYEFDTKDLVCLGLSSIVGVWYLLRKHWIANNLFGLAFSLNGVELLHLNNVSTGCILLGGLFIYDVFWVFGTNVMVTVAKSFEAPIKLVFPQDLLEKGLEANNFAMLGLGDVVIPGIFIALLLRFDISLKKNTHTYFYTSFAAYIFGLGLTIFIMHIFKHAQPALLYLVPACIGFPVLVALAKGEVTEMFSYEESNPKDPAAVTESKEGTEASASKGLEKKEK
UniProt H0YH80: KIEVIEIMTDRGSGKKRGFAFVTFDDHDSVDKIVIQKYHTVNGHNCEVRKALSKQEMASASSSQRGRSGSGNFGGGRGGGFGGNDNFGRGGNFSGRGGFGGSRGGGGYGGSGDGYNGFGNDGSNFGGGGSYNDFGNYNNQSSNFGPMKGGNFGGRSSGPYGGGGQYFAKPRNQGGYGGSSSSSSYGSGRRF
UniProt P41134: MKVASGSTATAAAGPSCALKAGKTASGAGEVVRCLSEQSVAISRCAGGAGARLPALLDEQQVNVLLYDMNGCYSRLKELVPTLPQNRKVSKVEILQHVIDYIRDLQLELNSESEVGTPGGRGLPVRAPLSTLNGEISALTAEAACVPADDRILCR
UniProt P13747, whole entry, looked up: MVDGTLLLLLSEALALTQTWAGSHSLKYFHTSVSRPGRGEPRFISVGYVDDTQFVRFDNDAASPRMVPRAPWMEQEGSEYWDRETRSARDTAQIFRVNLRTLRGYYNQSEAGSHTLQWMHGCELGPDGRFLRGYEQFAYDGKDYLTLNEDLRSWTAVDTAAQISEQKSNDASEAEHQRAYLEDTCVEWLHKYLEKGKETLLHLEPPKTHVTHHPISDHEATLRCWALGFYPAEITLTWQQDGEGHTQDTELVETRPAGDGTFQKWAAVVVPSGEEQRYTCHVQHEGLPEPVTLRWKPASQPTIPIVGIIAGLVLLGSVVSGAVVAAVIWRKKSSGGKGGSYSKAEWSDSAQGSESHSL

Compound in this experiment: C=CC(=O)N1CCC[C@@H](n2nc(-c3ccc(Oc4ccccc4)cc3)c3c(N)ncnc32)C1 [ibrutinib]
The experiment in a line: log2 fold change, soluble protein after heating vs DMSO (PISA); higher = thermal stabilisation; K562 cells, 10 uM, 30 min; active = over 0.2 and 3.5 SD of the protein, either way, in both replicates (recomputed). A digest of the protocol: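 K562 cells at 2×10^6 cells/mL were treated for 30 min with 10 μM compound, and aliquots were heated for 3 min over 48°C-58°C before pooling. Extraction used PBS with 0.5% NP-40 at 4°C, and soluble protein was the supernatant after 21,000xg for 90 min, measured by TMTpro 16plex LC-MS/MS with channel sums equalised. Thermal stability values, relative to control samples and from duplicates, are log2 fold changes.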
With IBTK (UniProt Q9P2D0), the log2 fold change is inactive: -0.08.
Regarding HMG20B (UniProt Q9P0W2), the log2 fold change was inactive: -0.097.
Take HSBP1 (UniProt O75506): the log2 fold change is inactive: -0.077.
Next, HIGD1A isoform 2 (UniProt Q9Y241): inactive: 0.1; HUWE1, A0A087X1S3: inactive: -0.031; ICE1 (UniProt Q9Y2F5): inactive: -0.072.
For the target HNRNPR (UniProt O43390), the log2 fold change was inactive: -0.04.
Next, ICOSLG isoform 2 (UniProt O75144): inactive: 0.275.
Next, HMBS (UniProt F5H226): inactive: 0.126.
Consider HM13 (UniProt Q8TCT9), for which the log2 fold change was inactive: -0.032.
Take HNRNPA1 (UniProt H0YH80): the log2 fold change is inactive: 0.073.
For ID1 (UniProt P41134), the log2 fold change was inactive: 0.095.
Next, HLA-E (UniProt P13747): inactive: 0.134.
On to HNRNPK isoform 3 (UniProt P61978), for which the log2 fold change was inactive: -0.001.

Values taken from the supplement of paper PMC10849652.
